# The list shows a part of the results. The main result of the screen is listed elsewhere. These columns were measured beside it and carry no call. Compounds called inactive in the main read-out are mostly missing here. Potencies come from curve fits of mixed quality, noted in brackets.
# Test: qHTS Assay for Lipid Storage Modulators in Drosophila S3 Cells;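 for cell number change: cells counted by Cell Tracker Red CMTPX staining in the red channel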
# Conditions: BODIPY lipid droplet fluorescence, 18-24 h; for cell number change: measured here: cell count max response, cells fed with added oleic acid
# Procedure, shortened: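 Drosophila S3 cells loaded with oleic acid (400 uM, as added) and compounds at several concentrations; lipid droplets imaged by 488-nm laser-scanning cytometry, 500–530 nm intensity and object ratio to cell channel. Percent activity normalized to 20 uM Triacsin C.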
# [1] = measured here: lipid fluorescence (Fed channel) AC50, cells fed with added oleic acid
# [2] = measured here: cell number channel AC50, cells fed with added oleic acid
compound,measurement,setting,value
O=C(Nc1ncccc1Cl)C1COc2ccccc2O1 (stereo unspecified),cell number change,,20.4%
COc1cccc(NC(=O)C2C3C=CC4(O3)C2C(=O)N(C2CC2)C4C(=O)NC2CCCCC2C)c1 (stereo unspecified),cell number change,,20.9%
same,AC50,[1],"29.1 µM [falling, single point]"
Cc1nnc(N2C(=O)C(O)=C(C(=O)c3ccco3)C2c2ccc(F)cc2)s1 (stereo unspecified),cell number change,,-29.5%
same,AC50,[1],"2.59 µM [falling, full curve]"
O=C(Cc1ccccc1F)Nc1ccc(SC(F)F)cc1,cell number change,,-2.25%
Cc1cccc(N2CCN(C(=O)Cc3cn(C)c4ccccc34)CC2)c1C,AC50,[2],"0.82 µM [rising, partial curve, poor fit]"
COc1ccc2[nH]c3nc(SCC(=O)NC4CC4)nnc3c2c1,cell number change,,23.1%
same,AC50,[1],"0.58 µM [falling, single point]"
O=C(O)c1ccc2cccc(Cl)c2c1O,cell number change,,4.83%
same,AC50,[1],"0.00461 µM [falling, full curve, poor fit]"
c1nnc(NC2=NCCC2)s1,cell number change,,-71.7%
same,AC50,[2],"14.6 µM [falling, single point]"
CCC(=O)N1CCc2cc(S(=O)(=O)CCC(=O)N3CCN(c4ccc(F)cc4)CC3)ccc21,cell number change,,14.3%
same,AC50,[1],"0.291 µM [rising, full curve]"
O=C(c1ccc(=O)oc1)N1CCCc2ccccc21,cell number change,,12.8%
COC(=O)C1=C(C)N(CCCC(=O)O)C(=O)NC1c1ccc(C(F)(F)F)cc1 (stereo unspecified),cell number change,,11.4%
Cc1ccc(N(CC(=O)N/N=C/c2cccs2)S(C)(=O)=O)cc1Cl,cell number change,,50.4%
same,AC50,[2],"29.1 µM [rising, single point]"
CCOC(=O)c1c(NC(=O)c2nn(CC)cc2Br)sc2c1CCCCC2,AC50,[2],"1.64 µM [rising, partial curve]"
O=C(NCCCN1CCOCC1)c1ccc2c(c1)N(Cc1ccccc1)C(=O)c1ccccc1S2,AC50,[2],"3.66 µM [falling, partial curve, poor fit]"
COc1ccccc1CNC(=O)COC(=O)Cc1cccs1,cell number change,,35.9%
COc1ccc(CNC(=O)COC(=O)CN2C(=O)C(C)Oc3ccc(C)cc32)cc1 (stereo unspecified),cell number change,,7.08%
same,AC50,[1],"2.06 µM [rising, partial curve]"
CCCN1Cc2cccc(C(=O)Nc3ccc4c(c3)OCO4)c2C1=O,cell number change,,-12.5%
same,AC50,[1],"6.51 µM [rising, partial curve, poor fit]"
COc1cc(C(=O)Nc2cnc(NC(=O)C(C)C)cc2C)cc(OC)c1OC,cell number change,,14%
same,AC50,[1],"6.51 µM [falling, single point]"
COc1ccc(-c2ncc3ccccn23)cc1OC,cell number change,,-16.5%
same,AC50,[1],"2.91 µM [falling, full curve, poor fit]"
COc1ccccc1NC(=O)Nc1nc(CC(=O)Nc2ccc(N(C)C)cc2)cs1,AC50,[1],"1.84 µM [rising, partial curve]"
O=C(CN1C(=O)NC2(CCCCC2)C1=O)N1CCN(S(=O)(=O)c2ccccc2)CC1,cell number change,,-3.92%
same,AC50,[1],"20.6 µM [rising, partial curve, poor fit]"
Cc1cc(Oc2nc3ccccn3c(=O)c2/C=C(\C#N)C(=O)NC2CCS(=O)(=O)C2)ccc1Cl (stereo unspecified),cell number change,,-8.73%
same,AC50,[1],"29.1 µM [falling, single point]"
CC1=C(C(=O)Nc2ccccc2)C(c2ccco2)C(C#N)=C(SCc2ccccc2)N1 (stereo unspecified),cell number change,,-22.6%
same,AC50,[1],"2.06 µM [rising, partial curve, poor fit]"
Cc1ccc(C)n1-c1ccncc1,cell number change,,6.79%
CC(NC(=O)NC1CCCCC1)C(c1cccs1)N1CCN(c2ccccc2)CC1 (stereo unspecified),cell number change,,38.2%
same,AC50,[2],"29.1 µM [rising, single point]"
same,AC50,[1],"29.1 µM [rising, single point]"
O=C(Nc1cccnc1)c1ccc(COc2ccccc2Br)cc1,cell number change,,16.7%
same,AC50,[1],"29.1 µM [rising, single point]"
COc1ccc(-c2nc(-c3ccc(NC(=O)c4ccc(Br)o4)cc3)no2)cc1OC,cell number change,,-66.7%
same,AC50,[2],"13 µM [falling, partial curve, poor fit]"
same,AC50,[1],"18.4 µM [falling, partial curve, poor fit]"
Cc1ccc(C(=O)Sc2cccccc2=O)cc1,cell number change,,-45.9%
same,AC50,[2],"10.3 µM [falling, partial curve]"
same,AC50,[1],"14.6 µM [falling, partial curve]"
Cc1ccc(-n2nc(C(=O)O)c(C)c(C#N)c2=O)cc1Cl,cell number change,,-4.42%
CNC(=O)CSc1nc2nc(C)cc(C)n2n1,cell number change,,-2.7%
same,AC50,[1],"3.66 µM [falling, partial curve]"
C=CCn1c(CSc2nc3ccccc3s2)nnc1SCC(=O)OCC,cell number change,,-83.8%
same,AC50,[2],"29.1 µM [falling, single point]"
same,AC50,[1],"29.1 µM [falling, single point]"
Cc1ccc(Nc2nnc(SC(C)C(=O)NC3CC3)s2)cc1 (stereo unspecified),cell number change,,-15.8%
same,AC50,[1],"5.17 µM [rising, partial curve, poor fit]"
CCOc1ccccc1N1CCN(CC(=O)NC(C)c2ccccc2)CC1 (stereo unspecified),cell number change,,-11.5%
same,AC50,[1],"6.51 µM [falling, single point]"
CNC(=O)COC(=O)c1cc(SC)ccc1Cl,cell number change,,-33.8%
same,AC50,[2],"29.1 µM [falling, single point]"
CN(C)C(=O)CN1C(=O)NC(c2ccccc2)(c2ccccc2)C1=O,cell number change,,3.33%
CCC(=O)NNc1nc2c(F)cccc2s1,cell number change,,-3.7%
same,AC50,[2],"0.092 µM [falling, single point]"
same,AC50,[1],"0.116 µM [falling, single point]"
C=CCOC(=O)N1CCN(c2cccc(C(F)(F)F)c2)CC1,AC50,[2],"6.51 µM [rising, partial curve]"
same,AC50,[1],"6.51 µM [falling, partial curve, poor fit]"
S=C(c1ccc(Cl)cc1)N1CCN(Cc2ccccc2)CC1,cell number change,,-29.2%
same,AC50,[2],"3.66 µM [falling, single point]"
same,AC50,[1],"3.66 µM [falling, full curve, poor fit]"
CC(C)Cn1c(=S)[nH]c2cc(Cl)ccc21,cell number change,,-24.7%
CCN(CC)C(=O)CSc1nc2ccccc2c(=O)n1CC,cell number change,,10.7%
same,AC50,[1],"0.058 µM [rising, full curve, poor fit]"
Cc1nc(SCC(=O)NC2CC2)c2c(C)c(C)sc2n1,cell number change,,10.7%
same,AC50,[1],"20.6 µM [rising, partial curve]"
CC(C)NC(=O)c1ccccc1NC(=O)C1CCCO1 (stereo unspecified),cell number change,,1.75%
same,AC50,[1],"0.146 µM [falling, full curve]"
S=C(NCc1ccccc1)Nc1cccc2cnccc12,cell number change,,-16.2%
same,AC50,[1],"29.1 µM [falling, single point]"
Cc1ccc[n+](CC(=O)Nc2nc3ccccc3s2)c1,cell number change,,-15.9%
same,AC50,[1],"0.58 µM [falling, full curve, poor fit]"
CCC(=O)Nc1ccc(Cl)c(NC(=S)NC(=O)c2ccco2)c1,cell number change,,-1.59%
same,AC50,[1],"29.1 µM [rising, single point]"
O=C1C=C(c2ccc(F)c(Cl)c2)C[C@@H](c2ccc(F)cc2)C1,cell number change,,-9.72%
CC1CCN(c2ccc(NC(=S)NC(=O)c3ccco3)cc2)CC1,cell number change,,-21.1%
same,AC50,[1],"32.6 µM [falling, single point]"
COC(=O)C1=C(C(=O)OC)C2(OC1c1cccc(F)c1)C(=O)c1ccccc1C2=O (stereo unspecified),cell number change,,-15.4%
same,AC50,[2],"0.13 µM [falling, full curve, poor fit]"
CCc1c(C(C)S(=O)(=O)c2ccc(C)cc2)[nH]c(=O)n1-c1ccc(C)cc1 (stereo unspecified),AC50,[1],"29.1 µM [falling, single point]"
N#CC1=C(SCc2ccccc2)NC(=O)C(C#N)C12CCCC2 (stereo unspecified),AC50,[1],"0.461 µM [rising, partial curve, poor fit]"
COc1cc2nc(SCC(N)=O)n(CCC3=CCCCC3)c(=O)c2cc1OC,cell number change,,9.14%
same,AC50,[1],"2.91 µM [rising, full curve]"
CCCc1cc(=O)oc2c(C)c(OCC(=O)Nc3cccnc3)ccc12,cell number change,,5.19%
same,AC50,[1],"29.1 µM [falling, single point]"
Cc1ccc(C(=O)NCCc2ccc(F)cc2)s1,cell number change,,26.8%
same,AC50,[2],"0.0206 µM [rising, full curve, poor fit]"
COc1ccc(OCCCC(=O)OC(C)C(=O)Nc2ccc(NC(C)=O)cc2)cc1 (stereo unspecified),cell number change,,2.7%
same,AC50,[1],"29.1 µM [rising, single point]"
Cc1nn(C(C)C(=O)NCCCc2ccccc2)c(=O)c2cc3occc3n12 (stereo unspecified),cell number change,,9.62%
same,AC50,[2],"0.731 µM [rising, full curve, poor fit]"
Cc1nc2nc(C)c(NS(=O)(=O)c3cccs3)c(=O)n2[nH]1,cell number change,,1.35%
same,AC50,[1],"0.82 µM [rising, full curve]"
COc1cc(CNC(C)(C)C)ccc1OCC(=O)NC(C)(C)C,cell number change,,-22.9%
same,AC50,[2],"2.59 µM [falling, full curve, poor fit]"
CC(C)COc1cccc(C(=O)NC(=S)Nc2cccc(NC(=O)c3ccccc3Cl)c2)c1,cell number change,,1.24%
same,AC50,[1],"0.517 µM [rising, full curve]"
COc1ccc(C2(C)NC(=O)N(CC(=O)Nc3c(C)n(C)n(-c4ccccc4)c3=O)C2=O)cc1 (stereo unspecified),cell number change,,-6.08%
same,AC50,[1],"2.31 µM [falling, single point]"
CCCCN(C(=O)C1CC(=O)N(Cc2ccc(C)cc2)C1)c1c(N)n(CC(C)C)c(=O)[nH]c1=O (stereo unspecified),AC50,[1],"2.59 µM [rising, partial curve]"
CSc1ccccc1OCc1cc(C(=O)NCCC2CCCCO2)no1 (stereo unspecified),cell number change,,-14.4%
same,AC50,[2],"4.61 µM [falling, single point]"
same,AC50,[1],"6.51 µM [rising, single point]"
Cc1ccc(C(=O)C(C)OC(=O)C2CCN(c3ccc(C(F)(F)F)cn3)CC2)cc1C (stereo unspecified),cell number change,,-33.9%
same,AC50,[1],"0.13 µM [rising, full curve, poor fit]"
Cn1cccc1C(=O)c1cccc([N+](=O)[O-])c1,cell number change,,25.3%
same,AC50,[1],"6.51 µM [rising, single point]"

# Laid out differently: entries from further up
compound	measurement	setting	value
COC(=O)C1=C(C)N(CCCC(=O)O)C(=O)NC1c1ccc(C(F)(F)F)cc1 (stereo unspecified)	cell number change		11.4%
CC(NC(=O)NC1CCCCC1)C(c1cccs1)N1CCN(c2ccccc2)CC1 (stereo unspecified)	AC50	[1]	29.1 µM [rising, single point]
O=C(Nc1cccnc1)c1ccc(COc2ccccc2Br)cc1	cell number change		16.7%
CCN(CC)C(=O)CSc1nc2ccccc2c(=O)n1CC	AC50	[1]	0.058 µM [rising, full curve, poor fit]
Cc1nc(SCC(=O)NC2CC2)c2c(C)c(C)sc2n1	cell number change		10.7%

# Reference: PubChem BioAssay AID2685 (National Center for Advancing Translational Sciences (NCATS), 2010)
